The list is a part of this screen's results and no random one: it gathers tests that were run many times, whatever their T/C, doses with no T/C, and many T/C values between a quarter and a half above the control. Other doses and runs of a compound stand elsewhere. T/C: endpoint of the treated group in % of that of the vehicle group. Some entries give survivors of the animals treated and no T/C: the source holds a T/C of zero for them, seemingly a mark for toxic or unscored doses. Some survivor counts are full or nearly so, which does not show that the dose was tolerated: the source hardly ever lists a survival T/C far under the control, and the zero likely stands for such cases as well. Counts of survivors are from the toxicity check (mostly the fifth day) where no day follows; animals may have died later. Schedules are NCI's codes, read here as Q, the interval in days (D) or hours (H), X, the number of doses. Some schedules carry Z or #; the key to these is not given. Some entries were tested several times; their values stand side by side, smallest first. Where survival is the endpoint, this PubChem deposit counts one and a half times the control or more as active, and values a quarter to a half above the control carry no call in these data; other NCI protocols may use other cut-offs. Some T/C values carry the count of animals alive at the toxicity check (mostly the fifth day); without a count, all were alive then.
System: L1210 leukemia ip in BDF1 mice, survival T/C
Experiment: NCI In Vivo Anticancer Drug Screen. Data for tumor model L1210 Leukemia (intraperitoneal) in B6D2F1 (BDF1) mice
Settings: T/C endpoint: mean survival time, higher T/C = longer survival
[1] = dose: 400.0 mg/kg/injection, schedule: Q01DX001 (ip), vehicle: saline
[2] = dose: 400.0 mg/kg/injection, schedule: Q04DX003 (ip), vehicle: saline with Tween-80
[3] = dose: 400.0 mg/kg/injection, schedule: Q01DX009 (ip), vehicle: Klucel (hydroxypropylcellulose) (HPC)
[4] = dose: 100.0 mg/kg/injection, schedule: Q01DX009 (ip), vehicle: saline with Tween-80
[5] = dose: 200.0 mg/kg/injection, schedule: Q01DX009 (ip), vehicle: saline with Tween-80
[6] = dose: 400.0 mg/kg/injection, schedule: Q04DX003 (ip), vehicle: saline
[7] = dose: 100.0 mg/kg/injection, schedule: Q01DX001 (ip), vehicle: saline
[8] = dose: 200.0 mg/kg/injection, schedule: Q01DX001 (ip), vehicle: saline
[9] = dose: 400.0 mg/kg/injection, schedule: Q01DX009 (ip), vehicle: saline
[10] = dose: 100.0 mg/kg/injection, schedule: Q04DX003 (ip), vehicle: saline
[11] = dose: 200.0 mg/kg/injection, schedule: Q04DX003 (ip), vehicle: saline
[12] = dose: 300.0 mg/kg/injection, schedule: Q01DX001 (ip), vehicle: other
[13] = dose: 100.0 mg/kg/injection, schedule: Q04DX002 (ip), vehicle: saline

In the case of `Nc1nc(Cl)[nH]c1-c1ncn[nH]1`, the survivor count [1] is reported as 0 of 6.

With `O=C(O)C(Cc1ccsc1)C(=O)O` the survivor count [1] was 0 of 4.

In the case of `O=C(CCl)NC(O)C(Cl)(Cl)Cl` (stereo unspecified), the survivor count (dose: 75.0 mg/kg/injection, schedule: Q01DX009 (ip), vehicle: saline) is reported as 1 of 6, the survivor count (dose: 150.0 mg/kg/injection, schedule: Q01DX009 (ip), vehicle: saline) is reported as 0 of 6 and the survivor count (dose: 300.0 mg/kg/injection, schedule: Q01DX009 (ip), vehicle: saline) is reported as 0 of 6.

For `CN(N=O)C(=O)N(C)C(=O)N(C)N=O`, the survivor count (dose: 75.0 mg/kg/injection, schedule: Q01DX Z (ip), vehicle: carboxymethylcellulose (CMC)) was 5 of 6, the survivor count (dose: 100.0 mg/kg/injection, schedule: Q01DX Z (ip), vehicle: carboxymethylcellulose (CMC)) was 5 of 6 and the survivor count (dose: 200.0 mg/kg/injection, schedule: Q01DX Z (ip), vehicle: carboxymethylcellulose (CMC)) was 0 of 6.

In the case of `CCNC(=S)NC1CCCCCCCCCCC1`, the survivor count (dose: 400.0 mg/kg/injection, schedule: Q04DX002 (ip), vehicle: saline with Tween-80) is reported as 3 of 3.

In the case of `CN(C)CCOC(=O)c1ccc(CBr)cc1`, the survivor count (dose: 175.0 mg/kg/injection, schedule: Q01DX009 (ip), vehicle: saline) is reported as 0 of 6 and the survivor count (dose: 350.0 mg/kg/injection, schedule: Q01DX009 (ip), vehicle: saline) is reported as 0 of 6.

In the case of `Cc1cc(Cl)ccc1NC(=O)COc1ccc(Cl)cc1Cl`, the survivor count [2] is reported as 6 of 6.

For `O=N[O-].O=N[O-].O=N[O-].O=N[O-].O=N[O-].O=N[O-].[Co+3].[Co].[NH2-].[NH2-].[NH2-].[NH2-].[NH2-].[NH2-]`, the survivor count (dose: 100.0 mg/kg/injection, schedule: Q04DX002 (ip), vehicle: saline with Tween-80) was 0 of 3.

In the case of `Cc1ncc(C#N)n1Cc1ccccc1`, the survivor count [3] is reported as 1 of 3.

In the case of `O=C(O)c1ccccc1CN1CCCC(C(=O)O)C1` (stereo unspecified), the survivor count [4] is reported as 3 of 6, the survivor count [5] is reported as 0 of 6 and the survivor count (dose: 400.0 mg/kg/injection, schedule: Q01DX009 (ip), vehicle: saline with Tween-80) is reported as 0 of 6.

In the case of `O=C1/C(=C/c2ccco2)CC2CCCCC12` (stereo unspecified), the survivor count [6] is reported as 0 of 6.

`COc1cccc(NC(=O)Nc2cccc(Cl)c2)c1` was tested, and the survivor count (dose: 200.0 mg/kg/injection, schedule: Q01DX009 (ip), vehicle: Klucel (hydroxypropylcellulose) (HPC)) was 1 of 6.

With `O=[N+]([O-])c1ccc(C[N+]23CCN(CC2)CC3)cc1` the survivor count [5] was 2 of 6.

For `O=C(CCCCCCCCC(=O)N/N=C/c1ccccc1)N/N=C/c1ccccc1`, the survivor count (dose: 200.0 mg/kg/injection, schedule: Q01DX001 (ip), vehicle: saline with Tween-80) was 6 of 6.

In the case of `CC1(C)N=C(N)N=C(N)N1c1cccc(OCCCOc2ccc(N)cc2)c1`, the survivor count (dose: 80.0 mg/kg/injection, schedule: Q01DX001 (ip), vehicle: saline) is reported as 3 of 6, the survivor count [7] is reported as 0 of 4 and the survivor count [8] is reported as 0 of 4. The survivor count [1] was 0 of 4.

In the case of `COCc1ncc2cnccn12`, the survivor count (dose: 200.0 mg/kg/injection, schedule: Q01DX009 (ip), vehicle: saline) is reported as 4 of 6 and the survivor count [9] is reported as 0 of 6.

For `CC1=CC(C)(C(Cl)(Cl)Cl)C(C)=C/C1=N/O` (stereo unspecified), the survivor count [3] was 2 of 6.

`N#C/C(=N\N=Nc1ccccc1)c1cccc2ccccc12` was tested, and the survivor count (dose: 400.0 mg/kg/injection, schedule: Q01DX009 (ip), vehicle: gum acacia) was 0 of 6.

With `CC(C)(O)CNS(=O)(=O)c1ccc(Br)cc1` the survivor count [3] was 0 of 6.

With `CCCCCCCCCCCCCCCC(=O)N(CCCN)CCCN` the survivor count (dose: 25.0 mg/kg/injection, schedule: Q01DX009 (ip), vehicle: saline with Tween-80) was 0 of 6, the survivor count (dose: 50.0 mg/kg/injection, schedule: Q01DX009 (ip), vehicle: saline with Tween-80) was 0 of 6 and the survivor count [10] was 0 of 6. For the same molecule, the survivor count [11] was 0 of 6 and the survivor count [6] was 0 of 6.

For `CN(C)CC/C=C1\c2ccccc2C(C)(C)c2ccc(Cl)cc21`, the survivor count (dose: 50.0 mg/kg/injection, schedule: Q01DX009 (ip), vehicle: acetone) was 6 of 6, the survivor count (dose: 64.0 mg/kg/injection, schedule: Q01DX015 (ip), vehicle: carboxymethylcellulose (CMC)) was 0 of 6 and the survivor count [10] was 6 of 6. The survivor count [8] was 6 of 6 and the survivor count [1] was 1 of 6.

With `Cn1nc(NN)c2cccnc21` the survivor count [12] was 0 of 6.

With `COc1ccc2nc3ccccc3c(NCCNCCO)c2c1` the survivor count (dose: 13.5 mg/kg/injection, schedule: Q01DX Z (ip), vehicle: carboxymethylcellulose (CMC)) was 6 of 6, the survivor count (dose: 20.0 mg/kg/injection, schedule: Q01DX Z (ip), vehicle: carboxymethylcellulose (CMC)) was 3 of 6 and the survivor count [7] was 3 of 4. The survivor count [8] was 0 of 4 and the survivor count [1] was 0 of 4.

`CCN(C(=S)Nc1cccc(OC)c1)c1ccccc1` was tested, and the survivor count [3] was 3 of 6.

For `CCOC(=O)/C=C(\C)N1CCCCC1`, the survivor count [9] was 3 of 6.

`CC(c1ccccc1)n1ccnc1CC#N` (stereo unspecified) was tested, and the survivor count [7] was 0 of 6, the T/C [13] was 121 % of control [2 of 3 alive] and the survivor count [13] was 1 of 3, 2 of 6, 3 of 6, 2 of 3. For the same molecule, the survivor count [10] was 0 of 6 and 1 of 6, the survivor count (dose: 200.0 mg/kg/injection, schedule: Q04DX002 (ip), vehicle: saline) was 0 of 3 and 0 of 6 and the survivor count [11] was 0 of 6. For the same molecule, the survivor count (dose: 400.0 mg/kg/injection, schedule: Q04DX002 (ip), vehicle: saline) was 0 of 3 and 0 of 6 and the survivor count [6] was 0 of 6.

For `CCOP(=S)(N1CC1(C)C)N1CC1(C)C` (stereo unspecified), the survivor count (dose: 400.0 mg/kg/injection, schedule: Q01DX015 (ip), vehicle: carboxymethylcellulose (CMC)) was 0 of 6.

`C/C=C/C=N/NC(=O)c1ccc(OC)cc1` was tested, and the survivor count [3] was 0 of 6.

With `CN(C)CCCNC(=O)Nc1ccccc1` the survivor count [3] was 0 of 6 and the survivor count (dose: 400.0 mg/kg/injection, schedule: Q04DX003 (ip), vehicle: Klucel (hydroxypropylcellulose) (HPC)) was 2 of 6.

In the case of `CC(=O)/C(=C\c1ccccc1)CNC1CCCCC1`, the survivor count (dose: 25.0 mg/kg/injection, schedule: Q01DX001 (ip), vehicle: saline with Tween-80) is reported as 0 of 3, the survivor count (dose: 50.0 mg/kg/injection, schedule: Q01DX001 (ip), vehicle: saline with Tween-80) is reported as 0 of 3 and the survivor count (dose: 100.0 mg/kg/injection, schedule: Q01DX001 (ip), vehicle: saline with Tween-80) is reported as 0 of 3.

In the case of `S=C(NCCNC(=S)[S][Sn]([c]1ccccc1)([c]1ccccc1)[c]1ccccc1)[S][Sn]([c]1ccccc1)([c]1ccccc1)[c]1ccccc1`, the survivor count [4] is reported as 0 of 6, the survivor count (dose: 128.0 mg/kg/injection, schedule: Q01DX015 (ip), vehicle: carboxymethylcellulose (CMC)) is reported as 3 of 6 and the survivor count (dose: 200.0 mg/kg/injection, schedule: Q04DX003 (ip), vehicle: saline with Tween-80) is reported as 2 of 6. The survivor count [2] was 0 of 6.

In the case of `c1ccc(Sc2ncnc3nc[nH]c23)nc1`, the T/C (dose: 400.0 mg/kg/injection, schedule: Q01DX001 (ip), vehicle: saline with Tween-80) is reported as 126 % of control and the survivor count (dose: 600.0 mg/kg/injection, schedule: Q01DX001 (ip), vehicle: saline with Tween-80) is reported as 3 of 6.

With `O=C1CCC(N2C(=O)C3C(C2=O)C2(Cl)C(Cl)=C(Cl)C3(Cl)C2(Cl)Cl)C(=O)N1` (stereo unspecified) the survivor count [6] was 0 of 3.

In the case of `CC12CCC(=O)C=C1CCC1C2CCC2(C)C1CCC2[N+](C)(C)C` (stereo unspecified), the survivor count (dose: 150.0 mg/kg/injection, schedule: Q01DX001 (ip), vehicle: other) is reported as 0 of 6 and the survivor count [12] is reported as 2 of 6.

In the case of `COc1ccc(OC)c(N(CCN2C(=O)c3ccccc3C2=O)C(=O)CCl)c1`, the survivor count (dose: 200.0 mg/kg/injection, schedule: Q04DX002 (ip), vehicle: Klucel (hydroxypropylcellulose) (HPC)) is reported as 3 of 3 and the survivor count (dose: 400.0 mg/kg/injection, schedule: Q04DX002 (ip), vehicle: Klucel (hydroxypropylcellulose) (HPC)) is reported as 3 of 3.

For `IC[P+](c1ccccc1)(c1ccccc1)c1ccccc1`, the survivor count (dose: 150.0 mg/kg/injection, schedule: Q01DX001 (ip), vehicle: carboxymethylcellulose (CMC)) was 0 of 6 and the survivor count (dose: 300.0 mg/kg/injection, schedule: Q01DX001 (ip), vehicle: carboxymethylcellulose (CMC)) was 0 of 6.

From PubChem BioAssay AID248 (DTP/NCI, 2004)
